No constants are given. Whether binding was seen depends on the method and setting. Binding seen in cells or lysates may run through a third protein. These calls come from enrichment with a bait or labelling near it, and not all partners need be listed. For some assays here: No binding means not detected with the bait.
T1: Neuropilin-2 (NRP2) (mouse (endogenous in mLMECs)), O35375
T1 chain: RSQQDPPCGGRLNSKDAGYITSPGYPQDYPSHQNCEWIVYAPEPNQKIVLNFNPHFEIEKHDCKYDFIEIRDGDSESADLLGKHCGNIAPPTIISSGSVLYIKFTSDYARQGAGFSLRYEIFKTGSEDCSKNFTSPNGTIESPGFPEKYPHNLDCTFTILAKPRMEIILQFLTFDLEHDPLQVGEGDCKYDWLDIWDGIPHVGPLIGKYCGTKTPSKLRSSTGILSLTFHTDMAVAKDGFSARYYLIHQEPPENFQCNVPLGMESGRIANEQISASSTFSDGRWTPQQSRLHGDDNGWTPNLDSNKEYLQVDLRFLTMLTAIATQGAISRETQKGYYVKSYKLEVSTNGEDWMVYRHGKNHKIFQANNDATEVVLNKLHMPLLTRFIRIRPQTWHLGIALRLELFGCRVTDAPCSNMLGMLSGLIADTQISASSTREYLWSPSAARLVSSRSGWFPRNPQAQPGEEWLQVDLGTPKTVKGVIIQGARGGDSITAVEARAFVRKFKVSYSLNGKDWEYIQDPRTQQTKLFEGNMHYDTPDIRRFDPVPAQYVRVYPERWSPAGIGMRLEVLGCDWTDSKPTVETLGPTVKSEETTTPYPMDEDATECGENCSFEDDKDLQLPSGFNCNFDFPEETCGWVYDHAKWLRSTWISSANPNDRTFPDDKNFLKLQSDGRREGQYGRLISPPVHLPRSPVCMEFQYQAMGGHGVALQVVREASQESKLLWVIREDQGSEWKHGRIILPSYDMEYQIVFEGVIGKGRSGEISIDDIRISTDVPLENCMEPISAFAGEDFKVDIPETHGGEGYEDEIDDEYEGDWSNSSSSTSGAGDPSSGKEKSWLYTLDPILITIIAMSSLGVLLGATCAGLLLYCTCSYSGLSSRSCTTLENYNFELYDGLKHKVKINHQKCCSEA

Amino acid sequences for entries named in this document (tags omitted).
UniProt P49817: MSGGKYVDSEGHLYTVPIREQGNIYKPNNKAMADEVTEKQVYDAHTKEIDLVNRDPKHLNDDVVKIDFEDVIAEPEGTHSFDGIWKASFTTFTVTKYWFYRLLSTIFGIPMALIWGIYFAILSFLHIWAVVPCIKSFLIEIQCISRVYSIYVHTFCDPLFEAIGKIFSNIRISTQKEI
UniProt Q9CQ22: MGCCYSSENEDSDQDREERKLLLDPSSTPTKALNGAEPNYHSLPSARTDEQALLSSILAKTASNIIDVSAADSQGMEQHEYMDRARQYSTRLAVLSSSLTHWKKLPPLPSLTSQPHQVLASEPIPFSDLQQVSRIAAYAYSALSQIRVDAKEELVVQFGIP

B1: Scamp1 (protein, UniProt Q8K021 1-338)
chain: MSDFDSNPFADPDLNNPFKDPSVTQVTRNVPPGLDEYNPFSDSRTPPPGSVKMPNVPNTQPAIMKPTEEHPAYTQITKEHALAQAELLKRQEELERKAAELDRREREMQNLSQHGRKNNWPPLPSNFPVGPCFYQDFSVDIPVEFQKTVKLMYYLWMFHAVTLFLNIFGCLAWFCVDSSRAVDFGLSILWFLLFTPCSFVCWYRPLYGAFRSDSSFRFFVFFFVYICQFAVHVLQAAGFHNWGNCGWISSLTGLNKNIPVGIMMIIIAALFTASAVISLVMFKKVHGLYRTTGASFEKAQQEFATGVMSNKTVQTAAANAASTAATSAAQNAFKGNQM
B2: Rab11Fip5 (protein, UniProt Q8R361 1-645)
chain: MALVRDPEPAAGSSRWLPTHVQVTVLRASGLRGKSSGAGSTSDAYTVIQVGREKYSTSVVEKTQGCPEWCEECSFELPPGALDGLLRAQEADAGPAPWASGPNAACELVLTTMHRSLIGVDKFLGRATVALDEVFRAGRAQHTQWYRLHSKPGKKEKERGEIQVTIQFTRNNLSASMFDLSMKDKPRSPFSKLKDRVKGKKKYDLESASAILPSSALEDPELGSLGKMGKAKGFFLRNKLRKSSLTQSNTSLGSDSTLSSTSGSLVYQGPGAELLTRSPSHSSWLSTEGGRDSIQSPKLLTHKRTYSDEASQLRAAPPRALLELQGHLDGASRSSLCVNGSHVYNEEPQPPLRHRSSISGPFPPSSSLHSVPPRSSEEGSRSSDDSWGRGSHGTSSSEAVPGQEELSKQAKGASCSGEEEGARLPEGKPVQVATPMVASSEAVAAEKDRKPRMGLFHHHHHQGLSRSEQGRRGSVGEKGSPSLGASPHHSSTGEEKAKSSWFGLRESKEPTQKPSPHPVKPLTAAPVEASPDRKQPRTSLSTALSSGLERLKTVTSGGIQSVLPASQLGSSVDTKRPKDSAVLDQSAKYYHLTHDELIGLLLQRERELSQRDEHVQELESYIDRLLVRIMETSPTLLQISPGPPK
B3: Neuropilin-1 (NRP1), P97333 22-923 (receptor)
chain: FRSDKCGGTIKIENPGYLTSPGYPHSYHPSEKCEWLIQAPEPYQRIMINFNPHFDLEDRDCKYDYVEVIDGENEGGRLWGKFCGKIAPSPVVSSGPFLFIKFVSDYETHGAGFSIRYEIFKRGPECSQNYTAPTGVIKSPGFPEKYPNSLECTYIIFAPKMSEIILEFESFDLEQDSNPPGGMFCRYDRLEIWDGFPEVGPHIGRYCGQKTPGRIRSSSGVLSMVFYTDSAIAKEGFSANYSVLQSSISEDFKCMEALGMESGEIHSDQITASSQYGTNWSVERSRLNYPENGWTPGEDSYKEWIQVDLGLLRFVTAVGTQGAISKETKKKYYVKTYRVDISSNGEDWISLKEGNKAIIFQGNTNPTDVVLGVFSKPLITRFVRIKPVSWETGISMRFEVYGCKITDYPCSGMLGMVSGLISDSQITASNQADRNWMPENIRLVTSRTGWALPPSPHPYTNEWLQVDLGDEKIVRGVIIQGGKHRENKVFMRKFKIAYSNNGSDWKTIMDDSKRKAKSFEGNNNYDTPELRTFSPLSTRFIRIYPERATHSGLGLRMELLGCEVEAPTAGPTTPNGNPVDECDDDQANCHSGTGDDFQLTGGTTVLATEKPTIIDSTIQSEFPTYGFNCEFGWGSHKTFCHWEHDSHAQLRWSVLTSKTGPIQDHTGDGNFIYSQADENQKGKVARLVSPVVYSQSSAHCMTFWYHMSGSHVGTLRVKLRYQKPEEYDQLVWMVVGHQGDHWKEGRVLLHKSLKLYQVIFEGEIGKGNLGGIAVDDISINNHISQEDCAKPTDLDKKNTEIKIDETGSTPGYEGEGEGDKNISRKPGNVLKTLDPILITIIAMSALGVLLGAVCGVVLYCACWHNGMSERNLSALENYNFELVDGVKLKKDKLNPQSNYSEA

Columns and labels:
[1] = molecular target: Neuropilin-2 (NRP2) (mouse (endogenous in mLMECs)) (UniProt O35375); experiment: affinity purification with mass spectrometry; NRP2 immunoprecipitates from two WT EC lines, control against NRP2 siRNA; label-free quantitative mass spectrometry, MaxQuant
[2] = molecular target: T1, Neuropilin-2 (NRP2) (mouse (endogenous …)); experiment: as above; settings: remark: other sources report otherwise

Molecule	binding [1]	binding [2]
caveolin-1 (from UniProt P49817 1-178)	binds	–
Lamtor1 (from UniProt Q9CQ22 1-161)	binds	–
B1	binds	–
B2	binds	–
B3	–	no binding

From article PMC7264094
